Hit rate of the full screen: of about 330,000 compounds, about 7,700 (2.3%) were called active. Inconclusive results, whose numbers are uncertain, are shown with a selection of clear calls. Calls come from the whole dose curve; as a rule, active = well fitted inhibition curve with a large enough effect; inconclusive = small, poorly fitted or top-dose-only effect, or effect the other way; inactive = flat fitted curve, though single readings scatter. Potencies beside an inconclusive call are fits to weak or partial responses and may not hold up.
assay: qHTS screen for small molecules that inhibit ELG1-dependent DNA repair in human embryonic kidney (HEK293T) cells expressing luciferase-tagged ELG1; conditions: HEK293T ELG1-luciferase reporter, luminescence, 16 h, DNA damage induced by 5-fluorouridine; activity change, negative = inhibition: at 46.1 µM (top of the series); note: nearly all actives have a fitted effect of over 55% in size
How it was run: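 Overnight (16 hr) co-exposure of 2,000 cells/well to 5-fluorouridine and compound at 37 °C preceded detection. Luciferase was quantified via ONE-Glo luminescence; loss of signal denotes inhibition.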
% is set by controls: 0 for no effect and ±100 for the full control effect; potency is the fitted concentration of half-maximal effect.

Row | SMILES | Potency | activity change, negative = inhibition
1 | CN(C(=O)CN(c1ccccc1)S(=O)(=O)c1ccc(F)cc1)C1CCS(=O)(=O)C1 (centres undefined) | inconclusive: 20.6 µM [activator, single point] | 
2 | CCN1CCN(CCC(=O)Nc2ccc(F)c(F)c2)CC1 |  | inactive: -18%
3 | Cc1nn(Cc2ccccc2)c(Cl)c1/C=C/C(=O)OC(C(=O)NC(N)=O)C(C)C (centres undefined) | inconclusive: 29.1 µM [inhibitor, single point] | 
4 | COC(=O)N1C(=O)[C@](c2ccccc2)(C2CCCC2)N1C(=O)OC | inconclusive: 29.1 µM [inhibitor, single point] | 
5 | COc1ccc(/C=C/C(=O)Nc2ccccc2C(=O)O)cc1OC | inconclusive: 3.66 µM [activator, partial curve] | 
6 | COc1ccc(Cl)cc1NC(=O)CN(C)C(=O)CN1C(=O)NC(C)(C)C1=O |  | inactive: 0%
7 | Cn1c(CSc2nc3ccccc3n2C)nc2ccccc21 | inconclusive: 7.08 µM [activator, partial curve, poor fit] | 
8 | COc1cc(/C=C2\SC(N)=NC2=O)cc(OC)c1 |  | inactive: -25.3%
9 | COc1cc(-c2cc(C(=O)Nc3cc(S(=O)(=O)N4CCOCC4)ccc3O)c3ccccc3n2)cc(OC)c1OC | active: 14.6 µM | 
10 | CCC(=O)N1N=C(c2ccc(NS(C)(=O)=O)cc2)CC1c1ccc(N(C)C)cc1 (centres undefined) | inconclusive: 9.2 µM [activator, partial curve] | 
11 | Cc1ccc(NC(=O)c2nc3nccc(C)n3n2)c(C)c1 | inconclusive: 18.3 µM [activator, partial curve] | 
12 | COc1cccc(OC)c1C(=O)NNC(=O)c1cccc(COc2ccc3c(c2)CCC3)c1 | inconclusive: 0.651 µM [activator, full curve] | 
13 | COc1cc(-c2nc3ccc(C)cn3c2NCc2ccccc2)ccc1SC1CCCCC1 | inconclusive: 31.6 µM [inhibitor, single point] | 
14 | Cc1[nH]n(-c2ccc(Cl)cc2)c(=O)c1/C=N/c1nnc(-c2ccccc2)s1 | inconclusive: 16.4 µM [activator, single point] | 
15 | CCCc1cc(-c2ccc(O)c(OCC)c2)c(C#N)c(N)n1 | inconclusive: 29.1 µM [inhibitor, single point] | 
16 | CC(C)(C)c1ccc(/C=N/NC(=S)Nc2cccnc2)cc1 |  | inactive: -28.3%
17 | Cc1ccc([C@@H]2CC=C(C(=O)O)[C@H](c3ccccc3F)N2S(=O)(=O)c2ccccc2C)cc1 |  | inactive: -1.13%
18 | CC(=O)c1c(C)[nH]c(C(=O)OCC(=O)Nc2nnc(-c3ccccc3)o2)c1C | inconclusive: 35.5 µM [activator, single point] | 
19 | O=C(Nc1ccc(N2CCN(C(=O)c3ccco3)CC2)c(Cl)c1)c1c(F)c(F)c(F)c(F)c1F | active: 18.4 µM | 

As entered above.
For Potency, CCCc1cc(-c2ccc(O)c(OCC)c2)c(C#N)c(N)n1 reads inconclusive: 29.1 µM [inhibitor, single point]
For activity change, negative = inhibition, CC(C)(C)c1ccc(/C=N/NC(=S)Nc2cccnc2)cc1 reads inactive: -28.3%
